{
  "source": "patent US12225917B2",
  "about": "(priority 2017, dated 2025)",
  "test": "Feed palatability, feed and water consumption and bird productivity study (Example 2): feed intake, water intake, bodyweight, FCR",
  "type": "in vivo, broiler chickens",
  "excerpt": "A follow-up study to determine the feed palatability, feed and water consumption and bird productivity following incorporation of a single formulation of IRP001 hemisulfate salt (unmasked) when offered to broiler chickens in-feed or in-water. The study explores the optimal treatment regime in terms of treatment start date.\nPhase 1: On receipt, two hundred and seventy (270) day-old commercial broiler chickens were allocated sequentially as they are received into sixteen (16) individual floor pens, each of 16 or 17 birds, on Day 0.\nPhase 2: On receipt, the ninety (90) day-old commercial broiler chickens were allocated sequentially as they are received into four (4) individual floor pens, each of 22 or 23 birds, on Day 22.\nFeed intake, water intake, weight gain and mortality were used as outcome parameters.\nIndividual daily feed intake and individual daily water intake data by pen and then by treatment group were calculated for Phases 1 and 2 (and for the entire trial for the birds in Group/Pen 2, 15 and 16 that continue through both Phases) using figures for total feed and water provided each day to each pen divided by the number of birds in each pen. Where errors in weighing, feeding/watering or recording (or other unexplained losses of feed and water) had occurred means were adjusted by using the mean value for the same pen on the 1-2 days either side of the apparent error. Similarly, group mean bodyweights were calculated for Phase 1 using total weight/total no. birds for Day 0 and individual weights from Days 7, 14, 21, 28, 35 and 42. Total (individual) feed consumed was calculated per treatment and feed conversion ratios per treatment calculated using the expression: total (individual) feed/total (individual) weight gain.\nIndividual daily feed intake and individual daily water intake were statistically compared by treatment within each phase and between Pens 2 and 15/16 over both phases using a linear model:— (Parameter)˜Treatment+Day+Pen+Treatment:Day and Tibco SPOTFIRE S+ 8.2 (2010). ‘Day’ was included in the model to allow for changes over time, ‘Pen’ as each treatment consisted of 2 pens while an interaction term ‘Treatment:Day’ was included to allow for treatment x time effects. Model suitability was confirmed by inspection of residual plots; in all instances the statistical model was appropriate.",
  "key": {"[1]": {"conditions": "Phase 2, chicks received day 22, IVP 2 g/kg in-feed Day 25-42, Group-Pen 19, 20"}, "[2]": {"conditions": "Phase 2 summary, IVP 1 g/L in-water D6-21 (42), Group-Pen 15, 16"}, "[3]": {"conditions": "Phase 1+2, Pen 2 untreated vs 15/16 treated in-water Day 6-42, significant at p<0.05"}},
  "data": [
    {"molecule": "COc1ccc2cc3[n+](cc2c1OC)CCc1cc2c(cc1-3)OCO2", "note": "[IRP001 chloride, berberine chloride]", "values": [
      {"measurement": "FCR", "setting": "Phase 1, IVP 1 g/L in-water Day 1-21, Group-Pen 5, 6", "result": 1.50},
      {"measurement": "Gain", "setting": "Phase 1, IVP 1 g/L in-water Day 5-21, Group-Pen 13, 14", "result": 0.680, "unit": "kg"},
      {"measurement": "FCR", "setting": "Phase 1, IVP 1 g/L in-water Day 6-21 (42), Group-Pen 15, 16", "result": 1.40},
      {"measurement": "Group mean bodyweight Day 28", "setting": "[1]", "result": 112.4, "unit": "g"},
      {"measurement": "Group mean bodyweight Day 35", "setting": "[1]", "result": 273.6, "unit": "g"},
      {"measurement": "Group mean bodyweight Day 42", "setting": "[1]", "result": 614.9, "unit": "g"},
      {"measurement": "Group mean bodyweight Day 28", "setting": "[2]", "result": 1.16, "unit": "kg"},
      {"measurement": "Group mean bodyweight Day 35", "setting": "[2]", "result": 1.66, "unit": "kg"},
      {"measurement": "Group mean bodyweight Day 42", "setting": "[2]", "result": 2.39, "unit": "kg"}
    ]},
    {"molecule": "berberine hemisulfate [IRP001 sulfate]", "values": [
      {"measurement": "feed eaten more by untreated birds over the total trial", "setting": "[3]", "result": "~0.14", "unit": "kg"},
      {"measurement": "water intake over the total trial", "setting": "[3]", "result": "untreated birds drinking more water"}
    ]}
  ]
}
